Data on 2 molecules can be found in patent publication US20150272161A1, “CHEWING GUM PRODUCTS CONTAINING (R)-2-[((1R,2S,5R)-2-ISOPROPYL-5-METHYLCLOHEXANECARBONYL)-AMINO]-ACETIC ACID ISOPROPYL ESTER” (WM. WRIGLEY JR. COMPANY, priority 2011, published 2015).

The nature of the data set: Sensory panel: bitterness intensity of solutions of cooling agent in 5% sucrose. In kind it is in vivo, human. To be noted: for Average Bitterness Intensity Score: five to six panelists. The protocol: Table 3 and FIG. 2 show test results of a trained sensory panel of five to six panelists where the panelists were asked to rate the bitterness intensity of solutions prepared with different concentrations of WS-5 and Gly-OiPr.
The sample solutions used in Table 3 and FIG. 2 were prepared with 5% sucrose solutions using distilled deionized water with differing concentrations (in ppm) of WS-5 and Gly-OiPr.

Regarding `CCOC(=O)CNC(=O)C1CC(C)CCC1C(C)C` (stereo not drawn) [WS-5, ethyl ester of N-[[5-methyl-2-(1-methylethyl)-cyclohexyl]carbonyl] glycine], the “Average Bitterness Intensity Score” value reads like this: (25 ppm in 5% sucrose solution) 1.67; (50 ppm in 5% sucrose solution) 2.17; (100 ppm in 5% sucrose solution) 3.17; (200 ppm in 5% sucrose solution) 4.17; (400 ppm in 5% sucrose solution) 5; (500 ppm in 5% sucrose solution) 5.5.

On to `CC1CCC(C(C)C)C(C(=O)NCC(=O)OC(C)C)C1` (stereo not drawn) [Gly-OiPr, [(2-isopropyl-5-methyl-cyclohexanecarbonyl)-amino]-acetic acid isopropyl ester], for which the “Average Bitterness Intensity Score” value reads like this: (25 ppm in 5% sucrose solution) 1.6; (50 ppm in 5% sucrose solution) 2.4; (100 ppm in 5% sucrose solution) 2.4; (200 ppm in 5% sucrose solution) 2.8; (400 ppm in 5% sucrose solution) 2.8. In addition, under “concentration doubled from 200 ppm to 400 ppm”, the “Change of bitterness intensity on doubling the concentration” value was “remained the same”.
